According to publication PMC3184947:
Substitutions are numbered along the chain they refer to. Read-outs that look alike come from different tables or passages of the source. No constants are given. Whether binding was seen depends on the method and setting. Binding seen in cells or lysates may run through a third protein. Some binding calls cover weakened binding; strength is not graded here. For some of these results: Where a sequence is shown, tags or fusion partners need not be part of it.

T1: Cdc11-GFP (S. cerevisiae) (UniProt P32458)
T1 sequence: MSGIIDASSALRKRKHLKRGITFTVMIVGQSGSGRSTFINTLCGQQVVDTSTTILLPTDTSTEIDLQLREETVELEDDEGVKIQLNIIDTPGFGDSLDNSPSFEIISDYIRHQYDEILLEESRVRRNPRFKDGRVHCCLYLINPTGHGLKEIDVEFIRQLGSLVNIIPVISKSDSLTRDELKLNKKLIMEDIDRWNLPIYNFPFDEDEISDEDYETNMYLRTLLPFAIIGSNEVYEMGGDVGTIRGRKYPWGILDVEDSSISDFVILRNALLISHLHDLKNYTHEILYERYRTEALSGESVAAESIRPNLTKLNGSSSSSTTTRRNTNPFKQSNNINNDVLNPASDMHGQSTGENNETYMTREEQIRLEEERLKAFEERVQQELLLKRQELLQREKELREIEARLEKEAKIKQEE

T2: Cdc11-GFP (S. cerevisiae), P32458
T2 chain: T1 sequence

T3: Shs1-TAP (S. cerevisiae) (UniProt Q07657)
T3 sequence: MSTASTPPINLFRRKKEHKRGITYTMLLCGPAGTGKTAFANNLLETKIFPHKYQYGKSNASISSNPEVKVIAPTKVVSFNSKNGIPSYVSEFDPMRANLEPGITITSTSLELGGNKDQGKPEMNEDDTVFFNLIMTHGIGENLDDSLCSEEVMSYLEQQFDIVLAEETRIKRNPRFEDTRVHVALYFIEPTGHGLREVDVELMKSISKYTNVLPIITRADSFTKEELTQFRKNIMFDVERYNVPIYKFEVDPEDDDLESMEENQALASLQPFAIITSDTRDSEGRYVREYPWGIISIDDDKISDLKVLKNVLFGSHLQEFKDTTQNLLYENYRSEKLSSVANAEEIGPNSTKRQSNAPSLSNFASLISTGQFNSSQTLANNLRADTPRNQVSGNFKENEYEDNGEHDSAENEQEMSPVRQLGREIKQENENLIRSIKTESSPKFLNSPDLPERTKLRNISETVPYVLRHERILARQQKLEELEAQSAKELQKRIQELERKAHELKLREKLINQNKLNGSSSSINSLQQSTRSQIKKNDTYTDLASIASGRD

T4: Cdc11-TAP (S. cerevisiae) (UniProt P32458)
T4 sequence: T1 sequence

T5: Cdc10-TAP (S. cerevisiae) (UniProt P25342)
T5 sequence: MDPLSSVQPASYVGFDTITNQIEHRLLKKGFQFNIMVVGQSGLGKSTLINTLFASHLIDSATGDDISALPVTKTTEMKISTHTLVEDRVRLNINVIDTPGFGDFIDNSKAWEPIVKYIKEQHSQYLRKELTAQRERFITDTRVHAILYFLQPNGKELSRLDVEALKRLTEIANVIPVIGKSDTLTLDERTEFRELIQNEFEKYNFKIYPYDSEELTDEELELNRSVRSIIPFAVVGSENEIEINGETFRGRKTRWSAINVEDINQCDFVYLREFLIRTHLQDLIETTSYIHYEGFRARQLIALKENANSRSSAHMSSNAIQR

B1: Shs1, Q07657 1-551 (protein)
chain: T3 sequence
B2: Cdc10, P25342 1-322 (protein)
chain: T5 sequence
B3: Cdc3 (protein, UniProt P32457 1-520)
chain: MSLKEEQVSIKQDPEQEERQHDQFNDVQIKQESQDHDGVDSQYTNGTQNDDSERFEAAESDVKVEPGLGMGITSSQSEKGQVLPDQPEIKFIRRQINGYVGFANLPKQWHRRSIKNGFSFNLLCVGPDGIGKTTLMKTLFNNDDIEANLVKDYEEELANDQEEEEGQGEGHENQSQEQRHKVKIKSYESVIEENGVKLNLNVIDTEGFGDFLNNDQKSWDPIIKEIDSRFDQYLDAENKINRHSINDKRIHACLYFIEPTGHYLKPLDLKFMQSVYEKCNLIPVIAKSDILTDEEILSFKKTIMNQLIQSNIELFKPPIYSNDDAENSHLSERLFSSLPYAVIGSNDIVENYSGNQVRGRSYPWGVIEVDNDNHSDFNLLKNLLIKQFMEELKERTSKILYENYRSSKLAKLGIKQDNSVFKEFDPISKQQEEKTLHEAKLAKLEIEMKTVFQQKVSEKEKKLQKSETELFARHKEMKEKLTKQLKALEDKKKQLELSINSASPNVNHSPVPTKKKGFLR
B4: Cdc12 (protein, UniProt P32468 1-407)
chain: MSAATATAAPVPPPVGISNLPNQRYKIVNEEGGTFTVMLCGESGLGKTTFINTLFQTVLKRADGQQHRQEPIRKTVEIDITRALLEEKHFELRVNVIDTPGFGDNVNNNKAWQPLVDFIDDQHDSYMRQEQQPYRTKKFDLRVHAVLYFIRPTGHGLKPIDIETMKRLSTRANLIPVIAKADTLTAQELQQFKSRIRQVIEAQEIRIFTPPLDADSKEDAKSGSNPDSAAVEHARQLIEAMPFAIVGSEKKFDNGQGTQVVARKYPWGLVEIENDSHCDFRKLRALLLRTYLLDLISTTQEMHYETYRRLRLEGHENTGEGNEDFTLPAIAPARKLSHNPRYKEEENALKKYFTDQVKAEEQRFRQWEQNIVNERIRLNGDLEEIQGKVKKLEEQVKSLQVKKSHLK
B5: Shs1-HA3 fusion protein, Q07657 1-551 (protein)
chain: T3 sequence
B6: shs1-66Δ (domain or fragment, UniProt Q07657 1-485)
chain: MSTASTPPINLFRRKKEHKRGITYTMLLCGPAGTGKTAFANNLLETKIFPHKYQYGKSNASISSNPEVKVIAPTKVVSFNSKNGIPSYVSEFDPMRANLEPGITITSTSLELGGNKDQGKPEMNEDDTVFFNLIMTHGIGENLDDSLCSEEVMSYLEQQFDIVLAEETRIKRNPRFEDTRVHVALYFIEPTGHGLREVDVELMKSISKYTNVLPIITRADSFTKEELTQFRKNIMFDVERYNVPIYKFEVDPEDDDLESMEENQALASLQPFAIITSDTRDSEGRYVREYPWGIISIDDDKISDLKVLKNVLFGSHLQEFKDTTQNLLYENYRSEKLSSVANAEEIGPNSTKRQSNAPSLSNFASLISTGQFNSSQTLANNLRADTPRNQVSGNFKENEYEDNGEHDSAENEQEMSPVRQLGREIKQENENLIRSIKTESSPKFLNSPDLPERTKLRNISETVPYVLRHERILARQQKLEELEAQ
B7: Shs1 8R mutant (protein, UniProt Q07657 1-551)
chain: T3 sequence with K488R, K492R, K500R, K505R, K509R, K515R, K535R, K536R
B8: Shs1 9R mutant (protein, UniProt Q07657 1-551)
chain: T3 sequence with K478R, K488R, K492R, K500R, K505R, K509R, K515R, K535R, K536R

How the values were obtained:
[1] = biological target: T1, Cdc11-GFP (S. cerevisiae); assay: co-IP; GFP-trap magnetic beads added to 10 mg of yeast whole cell lysate, bait a GFP-tagged septin; eluates on SDS-PAGE, silver stain and Western blot (anti-acetyl lysine, anti-HA, anti-actin, anti-GFP); wild type ESA1 or esa1-L254P background, cells at 25°C or 37°C
[2] = biological target: T2, Cdc11-GFP (S. cerevisiae), P32458; assay: as above; conditions: remark: other sources report otherwise
[3] = biological target: T3, Shs1-TAP (S. cerevisiae); assay: co-IP; single step purification of TAP-tagged septins (Cdc10-TAP, Cdc11-TAP, Shs1-TAP) on IgG magnetic beads from 40 mg yeast whole cell extract, 300 mM sodium acetate, 4°C; in vitro NuA4 KAT assay on the beads, SDS-PAGE, Coomassie staining and fluorography
[4] = biological target: T4, Cdc11-TAP (S. cerevisiae); assay: as above
[5] = biological target: T5, Cdc10-TAP (S. cerevisiae); assay: as above
[6] = biological target: T1, Cdc11-GFP (S. cerevisiae); assay: co-IP; GFP-trap magnetic beads added to 10 mg of yeast whole cell lysate, bait a GFP-tagged septin; eluates on SDS-PAGE, silver stain and Western blot (anti-acetyl lysine, anti-HA, anti-actin, anti-GFP); wild type ESA1 or esa1-L254P background, cells at 25°C or 37°C; remark: listed apart in the source

| binding [2] | binding [6] | also measured | Molecule |
| --- | --- | --- | --- |
|  |  | binding [1]: binds | Act1 (from UniProt P60010 1-375) |
| binds |  |  | B1 |
| binds |  |  | B2 |
|  | binds | binding [3]: binds; binding [4]: binds; binding [5]: binds | B3 |
|  |  | binding [3]: binds; binding [5]: binds | B4 |
| binds |  |  | B5 |
|  | binds |  | B6 |
|  | binds |  | B7 |
|  | binds |  | B8 |
